Measured values as given in patent US12173037.
No constants are given. Whether binding was seen depends on the method and setting. Some entries that bind do so weakly or less than the wild type.

Target: T1, wild-type human NGAL (Neutrophil Gelatinase Associated Lipocalin) (human), P80188
T1 chain: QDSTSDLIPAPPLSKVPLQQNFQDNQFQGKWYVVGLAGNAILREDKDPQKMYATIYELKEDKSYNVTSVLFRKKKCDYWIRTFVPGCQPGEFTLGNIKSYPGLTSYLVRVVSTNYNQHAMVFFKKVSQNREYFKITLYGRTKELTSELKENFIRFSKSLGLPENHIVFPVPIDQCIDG
Experiment: Western blot, homodimer formation
Conditions: remark: other sources report otherwise

B1: wild-type human NGAL (Neutrophil Gelatinase Associated Lipocalin), P80188 21-198 (ligand)
chain: QDSTSDLIPAPPLSKVPLQQNFQDNQFQGKWYVVGLAGNAILREDKDPQKMYATIYELKEDKSYNVTSVLFRKKKCDYWIRTFVPGCQPGEFTLGNIKSYPGLTSYLVRVVSTNYNQHAMVFFKKVSQNREYFKITLYGRTKELTSELKENFIRFSKSLGLPENHIVFPVPIDQCIDG
With B1 the binding was “binds”.
